# Among all 320,000 compounds or so, about 2,100 (0.66%) were called active. Inconclusive means that the source gave no clear call. Such entries were picked first, then a sample of the others. The call rests on the fitted dose curve; in most records, active means well fitted inhibition curve with a large enough effect in the signal ratio, with a control signal flat (not every such curve was filed as active); inconclusive means small, poorly fitted or top-dose-only effect, or effect the other way, or a change in a side signal; inactive means flat fitted curve, though single readings scatter; the % refers to the signal ratio. Potencies beside an inconclusive call are fits to weak or partial responses and may not hold up.
# Assay: qHTS Assay for Lipid Storage Modulators in Drosophila S3 Cells
# Conditions: BODIPY lipid droplet fluorescence, 18-24 h, cells fed with added oleic acid; lipid storage change, negative = inhibition: at 46.1 µM (top of the series) unless noted
# Method in brief: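 Drosophila S3 cells got compounds at several concentrations plus oleic acid (400 uM solution). Laser-scanning cytometry with 488 nm excitation read lipid droplets at 500-530 nm and cells at 575-640 nm. Percent activity was relative to 20 uM Triacsin C.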
# On the % scale 0 is the no-effect control and ±100 the full control effect; potency means the concentration at half of the fitted maximal effect.
SMILES,Potency,"lipid storage change, negative = inhibition"
O=c1c2ccccc2cnn1Cc1n[nH]c(=S)n1-c1ccccc1,"inconclusive: 29.1 µM [rising, single point]",–
COc1ccc(NC(=O)C(CC(=O)O)Cc2ccc(Cl)cc2)cc1 (stereo unspecified),"inconclusive: 29.1 µM [activator, single point]",–
O=C(CNc1ccccc1)N/N=C/c1c(O)ccc2ccccc12,–,inconclusive: 62.2%
COc1ccc(C(=O)NCc2cccnc2)cc1S(=O)(=O)N1CCOCC1,"inconclusive: 0.731 µM [falling, partial curve]",–
CCCN1C(=O)CC(Sc2ncccc2C(=O)O)C1=O (stereo unspecified),"inconclusive: 0.0073 µM [falling, full curve, poor fit]",–
Cc1c(NC(=O)c2cccc(NS(C)(=O)=O)c2)c(=O)n(-c2ccccc2)n1C,–,inconclusive: -0.299%
COc1ccccc1C1C(C(N)=O)=C(C)Nc2nc(-c3ccccc3Cl)nn21 (stereo unspecified),–,inconclusive: 4.71%
CCN1CCCC1CNc1ncnc2c1[nH]c1ccc(Cl)cc12 (stereo unspecified),"inconclusive: 5.17 µM [activator, full curve, poor fit]",–
O=C(O)CCN1C(=O)c2ccc(NC(=O)COc3ccccc3)cc2C1=O,–,inconclusive: 6.31%
CCOc1ccc(Br)cc1S(=O)(=O)Nc1ccc(C(=O)Nc2ccc(C)cc2)cc1,–,inconclusive: -18.3%
CCN(C(=O)CSc1nc2ccccc2c(=O)n1-c1cccc(C)c1)C1CCS(=O)(=O)C1 (stereo unspecified),–,inconclusive: 6.41%
CCOC(=O)C1(Cc2cccc(OC)c2)CCN(CC2CC=CCC2)CC1 (stereo unspecified),–,inconclusive: -7.29%
CCC(=O)Nc1ccc(/C=C(\C(C)=O)C(=O)c2ccccc2)cc1,–,inactive
Cc1ccc2cc(CN(Cc3ccco3)C(=O)C3CCCCC3)c(=O)[nH]c2c1C,"inconclusive: 1.64 µM [activator, full curve]",–
CCN(C(=O)c1c(C)noc1C)c1c(N)n(Cc2ccccc2)c(=O)[nH]c1=O,–,inconclusive: 36.5%
CCOC(=O)CCNC(=O)Nc1ccc2nc(C)n(Cc3cccc(Cl)c3)c(=O)c2c1,"inconclusive: 0.326 µM [activator, full curve]",–
CCCCC(CC)CNC(=O)CCS(=O)(=O)c1cccc2nonc12 (stereo unspecified),"inconclusive: 20.6 µM [activator, single point]",–
CCN(CC)c1ccc(/C=N/n2c(=S)[nH]nc(C)c2=O)cc1,–,inconclusive: 23.7%
COCCSc1nnc(NC(=O)C2CC(=O)N(CCc3ccc(F)cc3)C2)s1 (stereo unspecified),"inconclusive: 29.1 µM [activator, single point]",–
O=C1CCCN1CCCNS(=O)(=O)c1ccc(F)cc1F,–,inconclusive: -27%
CC(C)(C)c1ccc(C(=O)NCCC(=O)NCc2cccs2)cc1,"inconclusive: 0.092 µM [activator, full curve, poor fit]",–
O=C(c1cccc(S(=O)(=O)N2CCN(c3ccccc3)CC2)c1)N1CCN(c2ccccc2O)CC1,–,inconclusive: 34%
CCN(CC)CCN(C(=O)c1ccc2c(c1)CCCC2)c1nc2ccc(C)cc2s1,–,inconclusive: -5.21%
Cn1c2ccccc2c2c(C(=O)NCc3ccco3)cn(C3CCCCC3)c(=O)c21,"inconclusive: 5.8 µM [rising, full curve, poor fit]",–
O=C(O)CCCCCNc1nc2ncn(Cc3ccccc3)c2c(=O)[nH]1,active: 32.6 µM,–
Cc1ccc(C(=O)CC(C(=O)O)n2cncn2)cc1 (stereo unspecified),"inconclusive: 8.2 µM [activator, partial curve]",–

SMILES,Potency,"lipid storage change, negative = inhibition"
Cc1c(N=c2scc(-c3ccccc3)n2CCO)c(=O)n(-c2ccccc2)n1C,–,inconclusive: -0.406%
COc1ccccc1NC(=O)Nc1cc(C(C)C)ccc1C,–,inconclusive: -21.5%
CCCCn1c(SCC(=O)Nc2cc(C)[nH]n2)nc2ccsc2c1=O,–,inconclusive: -22%
O=C(Cn1cnc2c(cnn2-c2ccccc2)c1=O)Nc1ccc(S(=O)(=O)N2CCOCC2)cc1,–,inactive
CC(=O)NCCc1ccc(S(=O)(=O)N(C)C2CCS(=O)(=O)C2)cc1 (stereo unspecified),"inconclusive: 5.17 µM [falling, partial curve, poor fit]",–
NC(=O)CC(NC(=O)Cc1cccc2ccccc12)c1ccc(N2CCC(Cc3ccccc3)CC2)c([N+](=O)[O-])c1 (stereo unspecified),–,inconclusive: -8.36%
C=CCNC(=O)CSc1nc2cc(C(=O)OCC)ccc2n1CC,"inconclusive: 2.59 µM [activator, partial curve]",–
CC(C)CCNC(=O)CNC(=S)N(Cc1ccccc1)Cc1cccnc1,–,inconclusive: -10.6%
COc1cc(C(=O)NCc2cccnc2)ccc1OCC(=O)Nc1cccc(C(F)(F)F)c1,–,inconclusive: 5.36%
Cc1cc(C)cc(OC(C)C(=O)Nc2ccc(S(=O)(=O)Nc3cc(C)nc(C)n3)cc2)c1 (stereo unspecified),–,inconclusive: -21.4%
CN(CCOc1ccc(Cl)c(Cl)c1)Cc1ccccc1,–,inconclusive: 8.31%
CC1(C)CN(c2ccccc2)N(C(=O)c2ccc(C#N)cc2)C1=O,"inconclusive: 16.4 µM [activator, partial curve, poor fit]",–
O=C(Cc1ccccc1F)Nc1cc(S(=O)(=O)N2CCOCC2)ccc1N1CCOCC1,–,inconclusive: 29.1%
CCc1cc(=O)oc2c3c(cc(OCC(=O)NCCN4CCOCC4)c12)OC(C)(C)CC3,–,inconclusive: -65.4%
COc1cc(-c2nc3oc4ccccc4c(=O)c3c(=O)n2Cc2ccco2)cc(OC)c1OC,–,inconclusive: 20.7%
CS(=O)(=O)c1ccccc1-c1nnc(NC(=O)Cc2ccccc2)o1,"inconclusive: 29.1 µM [activator, single point]",–
Cc1ccc(C(=O)NNS(=O)(=O)c2ccc(F)cc2)cc1,–,inconclusive: 60.8%
S=C(Nc1ccc(Oc2ccccc2)cc1)N1CCN(c2ccccn2)CC1,"inconclusive: 32.6 µM [falling, single point]",–
Cc1ccc(NC(=O)CSc2ccc3nnc(-c4cccnc4)n3n2)cc1,–,inactive
CN(C)c1ccc(/C=C(\C#N)C(=O)c2ccccc2)cc1,–,inconclusive: -40.3%
O=C(NCc1cccs1)C1CCN(c2ccc(S(=O)(=O)N3CCOCC3)cc2Cl)CC1,–,inconclusive: 13.5%
Cc1ccccc1OCCC(=O)OCC(=O)NCCc1ccccc1,–,inconclusive
COc1ccccc1/C=C/C(=O)OCC(=O)N1CCN(S(=O)(=O)c2ccc(C)cc2C)CC1,–,inconclusive
CC(C)CC(COCc1ccc(Cl)cc1)N1CCN(C(=O)c2cccc(C(F)(F)F)c2)CCC1=O (stereo unspecified),–,inconclusive: -5.36%
CCCCCc1nnc(NC(=O)C(=O)OCC)s1,–,inconclusive: -20%
Cc1ccc(CONC(=O)/N=C/N(C)C)cc1,"inconclusive: 0.82 µM [activator, full curve, poor fit]",–

SMILES,Potency,"lipid storage change, negative = inhibition"
CN(C(=O)c1ccc(Br)o1)C1CCCCC1,–,inconclusive: 117%
Cc1ccc(-n2nc(C)c3c(C)c(CCC(=O)Nc4ccc(CN5CCCC5)cc4)c(C)nc32)cc1,–,inconclusive: -39.2%
C/C(=C\c1ccc(Cl)cc1)C(=O)c1c(C)cc(C)[nH]c1=O,"inconclusive: 25.9 µM [activator, single point]",–
Cc1nc2ccccc2c2c1CC(C)S2 (stereo unspecified),–,inconclusive: -3.16%
COC(=O)Nc1ncc(CN2C(=O)c3ccccc3C2=O)s1,–,inconclusive: 44%
c1ccc(-c2[nH]ncc2CN2CCN(Cc3ccc4c(c3)OCO4)CC2)cc1,–,inconclusive: 6.28%
CCOCCCn1c(-c2ccc(Cl)cc2)n[nH]c1=S,–,inconclusive: -26.3%
COc1ccc(C(=O)c2c3ccccc3[n+]([O-])n2CCC(N)=O)cc1,–,inconclusive: 4.4%
CCS(=O)(=O)N1CCCC(C(=O)NCc2cccc(OC)c2)C1 (stereo unspecified),"inconclusive: 0.0046 µM [falling, full curve, poor fit]",–
COc1ccc(CN(C)Cc2c(O)ccc3cc(Br)ccc23)cc1OC,–,inconclusive: 74.9%
Cc1c(C(=O)NCc2ccccc2)cnn1-c1ccccc1,–,inconclusive: 15.6%
CN1CCN(c2ccc(S(=O)(=O)N3CCCCC3)cc2NC(=O)/C=C/c2ccc(Cl)c([N+](=O)[O-])c2)CC1,"inconclusive: 18.4 µM [falling, single point]",–
NC(=S)N/N=C/c1coc2ccc(Cl)cc2c1=O,–,inconclusive: -35.5%
O=C1Nc2ccccc2N(O)N1c1ccc(Cl)c(Cl)c1,–,inconclusive: 11.2%
CC(C)n1nccc1N(Cc1ccc(Br)cc1)S(=O)(=O)c1ccccc1,–,inconclusive: 71.1%
Cc1cc(NC(=O)c2ccc(Cl)cc2Cl)no1,–,inconclusive: 45.5%
O=C(Nc1ccccc1F)C1CCN(S(=O)(=O)c2cccnc2)CC1,–,inconclusive: 24%
Cc1ccc(NS(=O)(=O)c2ccc(/C=C/C(=O)O)cc2)cc1Cl,–,inconclusive: -69.8%
Cc1nc(C)c(C(=O)O)c(-c2cccs2)c1C(=O)O,–,inconclusive: -32.8%
COc1ccc(/C(N)=N/OC(=O)C2CCC(=O)N2S(=O)(=O)c2ccc(C)cc2)cc1OC (stereo unspecified),"inconclusive: 8.2 µM [rising, partial curve, poor fit]",–
O=C(c1cc(-c2ccccn2)nc2ccc(Br)cc12)N1CCN(S(=O)(=O)c2ccccc2)CC1,–,inconclusive: 28.4%
Cc1[nH]c2ccccc2c1C(=O)C(=O)Nc1ccc2c(c1)OCO2,"inconclusive: 29.1 µM [falling, single point]",–
CCOc1cc(Cl)c(NC(=O)c2ccco2)cc1OCC,–,inconclusive: 13.3%
Cc1cc(C)nc(N2CCCC(C(=O)Nc3ccc(F)cc3)C2)n1 (stereo unspecified),–,inconclusive: 47.5%

# For reference, part of the list above.
SMILES,Potency,"lipid storage change, negative = inhibition"
CC(C)n1nccc1N(Cc1ccc(Br)cc1)S(=O)(=O)c1ccccc1,–,inconclusive: 71.1%
Cc1cc(NC(=O)c2ccc(Cl)cc2Cl)no1,–,inconclusive: 45.5%
O=C(Nc1ccccc1F)C1CCN(S(=O)(=O)c2cccnc2)CC1,–,inconclusive: 24%

# Two entries from above, tab-delimited.
SMILES	Potency	lipid storage change, negative = inhibition
Cc1ccc(-n2nc(C)c3c(C)c(CCC(=O)Nc4ccc(CN5CCCC5)cc4)c(C)nc32)cc1	–	inconclusive: -39.2%
CCOc1cc(Cl)c(NC(=O)c2ccco2)cc1OCC	–	inconclusive: 13.3%
